About 210 (0.4%) of roughly 52,000 sequences were called active.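 Rule for the calls: active = gene whose silencing raises cell survival under the drug, median off-target-corrected z-score across its silencing RNAs 2 or more; inactive = the rest.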 The list shows a part of the results.
test: Resistance to Poly (ADP-Ribose) Polymerase inhibitor: Gene Identification via Genome-wide siRNA Screen; conditions: mouse BRCA2 R2336H ES cells, olaparib, CellTiter-Glo viability; hits give high values
Summary of the method: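 Genome-wide siRNA screen (3 siRNAs/gene, 20 nM) in mouse ES cells carrying hypomorphic BRCA2 R2336H; olaparib 500 nM added 48 h post-transfection, CellTiter-Glo viability 72 h later. Normalized to plate-median negative control; MAD z-scores, gene median, seed-adjusted.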

| Sequence | z-score |
| --- | --- |
| GGAAGAGAAUAAAACCUCATT against Ptpra | inactive: -0.25 |
| ACAGGAGUCCAUAGCCGUCTT against Aspscr1 | inactive: -2.69 |
| GCCACUUUAGUAUGGAAUGTT against Nxt1 | inactive: -0.362 |
| GGCAGAAAAGAGAUGUUCUTT against 1810046J19Rik | inactive: -0.982 |
| CCUGAAGUGGAGAUUCAACTT against Kcnj6 | inactive: 0.574 |
| CGCAGGAUUGAGUUAAUUATT against LOC432589 | inactive: 0.245 |
| GGCAAAGAAUACUAUGUGUTT against Gm1019 | inactive: -0.666 |
| GCUGAUGGUGUAUAACUCGTT against Gorasp1 | inactive: 1.45 |
| GCUCAUAUACUCUAAAUUGTT against V1rd1 | inactive: 0.395 |
| GGAGAAGUACGUUUAAAUGTT against E430034L04Rik | inactive: 0.715 |
| GGGUAACAUGAAGAUCAAUTT against Rnf19 | inactive: -1.26 |
| CCAUUUAAGGUCAUCUGCATT against Nxph2 | inactive: -0.64 |
| GCAGUUGGCAGGCUAAAAATT against 5230400G24Rik | inactive: 0.761 |
| GCACAGAGGAUGUACGUUATT against Cstad | inactive: -0.623 |
| GGUGCUCACGUUUUUCUUATT against B3galt3 | inactive: 1.23 |
| GGACGUAGAUCAUUUCAAUTT against Afm | inactive: -0.896 |
| GGAAAAGAGAAGAAGGCACTT against Taf6 | inactive: -0.0616 |
| GCUAGUUGGGAUACUCAAGTT against Mpp6 | inactive: -0.715 |
| GGAGACGAGAGGAUCCUCUTT against Chga | inactive: 0.626 |
| GGUACCCACUAGAGGAUCATT against Madd | inactive: -0.535 |
| GGCUAAUCACCAAUUUCUUTT against BC005682 | inactive: 0.32 |
| GCCUUCUUCGACCGCUCAUTT against 2810405K07Rik | inactive: 0.219 |
| GCAUAUUCAGCAACAGGUATT against Trim24 | inactive: 0.882 |
| CGGUACGAGAUGCAAAAAATT against Prkca | inactive: 1.62 |
| GGCAAUAAUAAAUAGCACCTT against Homer1 | inactive: -0.254 |
| GCCAUACGAUCUGCAUUUCTT against A930014K01Rik | inactive: -1.22 |

| Sequence | z-score |
| --- | --- |
| GGUUGAUAGUUGUGAAAAGTT against Mclc | inactive: -1.04 |
| GCAGCAUAAUUGCUUGCUATT against Pde8b | inactive: -0.819 |
| GGUGAAGAAGUGACACCUGTT against 2700055K07Rik | inactive: 0.292 |
| GCUACUCAGUCUUUACUAUTT against 1200003M09Rik | inactive: -3.33 |
| GGAUCCUAGGAUAGAAAAUTT against Asgr2 | inactive: 0.781 |
| CCCUCAACUUUCAGAUCAGTT against Ard1 | inactive: 0.611 |
| CGACUUGAUUUCAAAACAUTT against Fbxl13 | inactive: 0.0977 |
| GGCCGAGGUUUUGUUCUUUTT against Polr2g | inactive: -3.59 |
| GCCAUUUAUCCGGUACGACTT against Arp3b | inactive: 0.09 |
| GGAGGAGACUGAAAUUCCATT against Prkcdbp | inactive: 0.506 |
| AAGCUGAGAACAGUCGAAGTT against Vasp | inactive: -0.57 |
| CGUGGUACACUGAAGACUUTT against Mmp1a | inactive: 0.139 |
| GGGAUCAAGUUAAAUAGACTT against 1810032O08Rik | inactive: 1.14 |
| CCUAUGAAACCCAUCAUUATT against Farp2 | inactive: 0.717 |
| GGGAGACAAGUUCAUCAAATT against Gtf2e1 | inactive: 0.697 |
| GGAAUGUUUCUUUAUCACATT against Slc35e4 | inactive: 0.975 |
| CCUACUGGUUGAAAAUAUUTT against 2210012G02Rik | inactive: -0.238 |
| CGAGACAGUUUCCAUAGCGTT against Mint | inactive: -0.198 |
| GGUAUGUUUUUCUCACAAGTT against Ehd4 | inactive: -0.231 |
| GGACAACUCCCAUAGCCAUTT against Sin3b | inactive: 0.325 |
| GUAAACCACUGAAAAACCATT against Siah1b | inactive: 1.22 |
| GGCCAUCAGAGUCAACUGUTT against Immt | inactive: 0.123 |
| CCAUAUGUAAAGUGAAACATT against A530013C23Rik | inactive: 0.36 |
| GGUCACUGCUAAAGCCUGATT against Stoml3 | inactive: -1.43 |
| GGAAAUGUACCUGUUUGUUTT against Dnase1l2 | inactive: -0.984 |
| CGCGCAUCCAGGUUAUCUUTT against Slc7a10 | inactive: 1.97 |

| Sequence | z-score |
| --- | --- |
| GGCUGUAUACCAAUAAAAATT against B4galt6 | inactive: 1.53 |
| GGAGACUGUGUUUACAGUATT against Olfr347 | inactive: -0.75 |
| GGGUCUAUGAGCUAAUUAUTT against Psmd5 | inactive: -0.391 |
| GGAAGUGGGCAGCAUCAUUTT against Pcbp4 | inactive: -1.56 |
| GGAAAACCAUGAAGCCAUGTT against Dnase1l3 | inactive: -1.12 |
| GGGUGGAGACUUGGAAAUGTT against Spag11 | inactive: -0.202 |
| GGAAGAAGUAGAGAUGCUATT against Myl6 | inactive: 0.46 |
| GGAAGUUGGAAAAACAUUGTT against 6.72E+21 | inactive: 0.408 |
| GCUACACCAUUGUAAGAAGTT against Gypa | inactive: -0.32 |
| GGCUACUUCAUGCUGUAUATT against Bcs1l | inactive: 0.345 |
| GCGAGUUGGAAUUGAGAUCTT against Casp8 | inactive: 0.155 |
| GGCUCAGAUACAUCUGUUATT against 1700024K14Rik | inactive: -1.93 |
| GGAUGUCCCGAAGCUAAGGTT against Ggnbp1 | inactive: -0.104 |
| GGAAGUAGGAGAGGAAAGUTT against D930020B18Rik | inactive: 0.225 |
| GGCCUUCUUGCCAACUACATT against D030070L09Rik | inactive: 0.608 |
| GGAGAGUAACAAUUAUGAATT against Pcdha9 | inactive: 0.501 |
| GGCAACAAAAAAAUCCCAATT against Cd160 | inactive: 0.861 |
| GCUAGUUUGACAGAGGCCUTT against Prelp | inactive: -0.911 |
| CGAGGUUCGGACCUGUAAATT against 2610036N15Rik | inactive: 0.782 |
| GCCAUUACCCGGUAUAUGATT against Sesn1 | inactive: 0.919 |
| GGUCUUCAGACCAGAAACATT against Hsd3b2 | inactive: -1.74 |
| GCUUCUAUGGCAGGAUAAATT against Cd28 | inactive: -0.943 |
| GGAGCUACCUAUCCUUUGUTT against Dbccr1 | inactive: -1.03 |
| GCUCGAUAUUUUGAAGUCCTT against 1700051C09Rik | inactive: -0.724 |
| GCCUAUAAAACCUUUGCCUTT against Loxl2 | inactive: -1.4 |
| GCUUUCGGAUGAACUUCGGTT against DXImx47e | inactive: 1.12 |

| Sequence | z-score |
| --- | --- |
| CCUUUUGAAUGAUAGGGUGTT against Tbcd | inactive: -0.373 |
| GGUCAAUGCUGUUUUUGUUTT against Mxi1 | inactive: 0.526 |
| GGAUGUUAAACUACAUUGATT against Ropn1 | inactive: -0.621 |
| CGCAUAGAGCCUGUCCUCATT against Spink3 | inactive: 1.19 |
| GGUUCAAGUUCGCAUACAGTT against Rnf111 | inactive: -1.05 |
| GCACGUUGAACAAUGAAGATT against Unc13a | inactive: -0.144 |
| GGAAAAGAAGCCAAUUCCUTT against Smpx | inactive: 0.0446 |
| CCAGGAUUGCUGUUCUGAATT against D8Wsu151e | inactive: 1.18 |
| GCAUUACUAUGAGCGGGACTT against Pygb | inactive: 0.77 |
| CCUUACUUGAUAAUCCAAATT against Dlgh1 | inactive: -0.239 |
| CGUAUAACUAACCUGUUGATT against V1ra7 | inactive: 0.875 |
| GCAAGUGAUGAACCAGUUCTT against Zcwcc1 | inactive: -1.62 |
| GCCAAUCUGGUGAUACUUCTT against V1re13 | inactive: -2.11 |
| CCACUUGAGUAUAAGCAAUTT against Zfp422-rs1 | inactive: -0.313 |
| GGAAAAGAAGAAGCAGAUUTT against Incenp | inactive: -2.17 |
| CCUGGACUGAGAAUAUAGCTT against 2610008E11Rik | inactive: -0.722 |
| GCAAAACGGCUUUUGAAUGTT against Zfp454 | inactive: 1.12 |
| GCUUUGUGAUGGAUUACUATT against Ccl4 | inactive: 1.44 |
| GGCUUGUGGAAAUUUUGGGTT against Paics | inactive: -1.57 |
| GGUUGUAAUGAGAAAGUGATT against H2-Ke6 | inactive: -0.728 |
| GGGUUCAACACAGCCAAUGTT against BC026682 | inactive: -0.415 |
| GCUGCUUAGAUACAUUUUUTT against 4632434I11Rik | inactive: 0.128 |
| GCAACAUAUGUUCAAGAUCTT against 0610037D15Rik | inactive: 1.34 |
| CCGUAUAGGUAGAUCCAGATT against Stmn1 | inactive: 0.468 |
| GCACCGUGUGACCAUGAACTT against Akt1 | inactive: 0.964 |
| GGAUUCAGACCACAAUACCTT against Klk4 | inactive: 0.541 |

A stretch from further up, for reference:

| Sequence | z-score |
| --- | --- |
| CCUGGACUGAGAAUAUAGCTT against 2610008E11Rik | inactive: -0.722 |
| GCAAAACGGCUUUUGAAUGTT against Zfp454 | inactive: 1.12 |
| GCUUUGUGAUGGAUUACUATT against Ccl4 | inactive: 1.44 |
| GGCUUGUGGAAAUUUUGGGTT against Paics | inactive: -1.57 |
| GGUUGUAAUGAGAAAGUGATT against H2-Ke6 | inactive: -0.728 |

Source: PubChem BioAssay AID1347423 (Functional Genomics Laboratory (NCATS/FGL), 2020)
